Assay results from the supplement of paper PMC9744312.
Where a name gives a salt, the structure may show the parent alone. Some of the results follow. Single values of this set are uncertain.

Each molecule was assayed on Peyronie's disease tunica albuginea primary fibroblasts (assay: cell viability (DRAQ5 nuclear stain) relative to TGF-beta1-only control; higher = more viable cells). Settings: 10 µM; TGF-beta1 10 ng/mL; 72 h.

Row | SMILES | cell viability
1 | CCCN(CCc1cccs1)[C@H]1CCc2c(O)cccc2C1 [Rotigotine] | 89.9%
2 | Clc1ccc(COC(Cn2ccnc2)c2ccc(Cl)cc2Cl)c(Cl)c1 (stereo not drawn) [Miconazole Nitrate] | 93.7%
3 | Clc1ccc(COC(Cn2ccnc2)c2ccc(Cl)cc2Cl)c(Cl)c1 (stereo not drawn) [Miconazole] | 85.2%
4 | Cc1cc(=O)n(-c2ccccc2)n1C [Antipyrine] | 93%
5 | CO[C@H]1O[C@@H]2O[C@@]3(C)CC[C@H]4[C@H](C)CC[C@@H]([C@H]1C)[C@@]24OO3 [Artemether] | 96.3%
6 | NC12CC3CC(CC(C3)C1)C2 [Amantadine HCl] | 95.1%
7 | NC12CC3CC(CC(C3)C1)C2 [Amantadine] | 89.9%
8 | NCC(=O)O [Glycine] | 97.3%
9 | Cc1ccc(-c2ncc(Cl)cc2-c2ccc(S(C)(=O)=O)cc2)cn1 [Etoricoxib] | 90.5%
10 | CC1CCc2c(N3CCC(O)CC3)c(F)cc3c(=O)c(C(=O)O)cn1c23 (stereo not drawn) [Nadifloxacin] | 91.4%
11 | C=CC(=O)N1CCC(Oc2cc3c(Nc4ccc(Cl)c(Cl)c4F)ncnc3cc2OC)CC1 [Poziotinib (HM781-36B)] | 64.1%
12 | CCC(Cc1c(I)cc(I)c(N)c1I)C(=O)O (stereo not drawn) [Iopanoic acid] | 94.9%
13 | CCC(NC(C)C)C(O)c1ccc(O)c(O)c1 (stereo not drawn) [Isoetharine Mesylate] | 62.3%
14 | CN1C2=CC(=O)/C(=N\NC(N)=O)C=C2CC1S(=O)(=O)O (stereo not drawn) [Carbazochrome sodium sulfonate (AC-17)] | 96.1%
15 | C[C@]12CC[C@@H]3c4ccc(O)cc4CC[C@H]3[C@@H]1CC[C@@H]2OC(=O)CCC1CCCC1 [Estradiol Cypionate] | 89.2%
16 | C[C@@H]1[C@H](O)[C@@H](C)/C=C/C=C/C=C/C=C/C=C/C=C/C=C/[C@H](O[C@@H]2O[C@H](C)[C@@H](O)[C@H](N)[C@@H]2O)C[C@@H]2O[C@](O)(C[C@@H](O)C[C@@H](O)[C@H](O)CC[C@@H](O)C[C@@H](O)CC(=O)O[C@H]1C)C[C@H](O)[C@H]2C(=O)O [Amphotericin B] | 75.7%
17 | CO[C@@]1(NC(=O)CSCC#N)C(=O)N2C(C(=O)O)=C(CSc3nnnn3C)CS[C@@H]21 [Cefmetazole sodium] | 89.5%
18 | CCN[C@H]1C[C@H](C)S(=O)(=O)c2sc(S(N)(=O)=O)cc21 [Dorzolamide HCl] | 92.3%
19 | O=C1Cc2cc(CCN3CCN(c4nsc5ccccc45)CC3)c(Cl)cc2N1 [Ziprasidone HCl] | 57.8%
20 | CC(C)/N=c1\cc2n(-c3ccc(Cl)cc3)c3ccccc3nc-2cc1Nc1ccc(Cl)cc1 [Clofazimine] | 88.5%
21 | CC(C)(C(=O)c1cccnc1)c1cccnc1 [Metyrapone] | 99.7%
22 | Nc1ncn([C@H]2C[C@H](O)[C@@H](CO)O2)c(=O)n1 [Decitabine] | 66.1%
23 | CS(=O)(=O)CCNCc1ccc(-c2ccc3ncnc(Nc4ccc(OCc5cccc(F)c5)c(Cl)c4)c3c2)o1 [Lapatinib ditosylate monohydrate] | 89.6%
24 | CS(=O)(=O)CCNCc1ccc(-c2ccc3ncnc(Nc4ccc(OCc5cccc(F)c5)c(Cl)c4)c3c2)o1 | 93.2%
25 | CS(=O)(=O)CCNCc1ccc(-c2ccc3ncnc(Nc4ccc(OCc5cccc(F)c5)c(Cl)c4)c3c2)o1 [Lapatinib] | 89.7%

Row | SMILES | cell viability
26 | C=CC(=O)Nc1cccc(Nc2nc(Nc3ccc(N4CCN(C(C)=O)CC4)cc3OC)ncc2C(F)(F)F)c1 [Rociletinib (CO-1686, AVL-301)] | 55.9%
27 | Nc1c(Br)cc(Br)cc1CN[C@H]1CC[C@H](O)CC1 [Ambroxol] | 79.9%
28 | Nc1c(Br)cc(Br)cc1CN[C@H]1CC[C@H](O)CC1 [Ambroxol HCl] | 94.2%
29 | Oc1ccc(Cl)c2cccnc12 [Cloxiquine] | 64.9%
30 | Cn1ccnc1S [Methimazole] | 95.6%
31 | CC(C)(Sc1cc(C(C)(C)C)c(O)c(C(C)(C)C)c1)Sc1cc(C(C)(C)C)c(O)c(C(C)(C)C)c1 [Probucol] | 93.3%
32 | COc1ccccc1N1CCN(CC(O)COc2cccc3ccccc23)CC1 (stereo not drawn) [Naftopidil] | 90.2%
33 | COc1ccccc1N1CCN(CC(O)COc2cccc3ccccc23)CC1 (stereo not drawn) [Naftopidil DiHCl] | 101%
34 | CN1CCC(=C2c3ccccc3CC(=O)c3sccc32)CC1 [Ketotifen Fumarate] | 93%
35 | COC(=O)c1ccccc1O [Methyl salicylate] | 93%
36 | N#CC(c1ccc(Cl)cc1)c1c(Cl)cc(-n2ncc(=O)[nH]c2=O)cc1Cl (stereo not drawn) [Diclazuril] | 92.5%
37 | OCc1cc([C@@H](O)CNCCCCCCOCCOCc2c(Cl)cccc2Cl)ccc1O [Vilanterol Trifenate] | 86.9%
38 | O.O.O.O.O=C([O-])CC(O)(CC(=O)[O-])C(=O)[O-].[Li+].[Li+].[Li+] [Citric acid trilithium salt tetrahydrate] | 92.9%
39 | COc1cc(OC)c(C(=O)CCCN2CCCC2)c(OC)c1 [Buflomedil HCl] | 85%
40 | CC(C)(C)C(=O)OCOP(=O)(COCCn1cnc2c(N)ncnc21)OCOC(=O)C(C)(C)C [Adefovir Dipivoxil] | 71.7%
41 | CCOc1ccc(Cc2cc([C@@H]3O[C@H](SC)[C@@H](O)[C@H](O)[C@H]3O)ccc2Cl)cc1 [Sotagliflozin (LX4211)] | 89.3%
42 | Cc1ccc(NC(=O)c2ccc(CN3CC[C@H](N(C)C)C3)c(C(F)(F)F)c2)cc1Nc1nccc(-c2cncnc2)n1 [Bafetinib (INNO-406)] | 69.9%
43 | CC(C)(S)[C@@H](N)C(=O)O [Penicillamine] | 88%
44 | CCCCCCCCCCC[C@@H](C[C@@H]1OC(=O)[C@H]1CCCCCC)OC(=O)[C@H](CC(C)C)NC=O [Orlistat] | 88%
45 | CC1(C)CCC(CN2CCN(c3ccc(C(=O)NS(=O)(=O)c4ccc(NCC5CCOCC5)c([N+](=O)[O-])c4)c(Oc4cnc5[nH]ccc5c4)c3)CC2)=C(c2ccc(Cl)cc2)C1 [Venetoclax (ABT-199, GDC-0199)] | 90.5%
46 | O=NO [Sodium Nitrite] | 87.8%
47 | CC(=O)NO [Acetohydroxamic acid] | 94.1%
48 | CC(=O)N[C@@H](CCC(N)=O)C(=O)O [Aceglutamide] | 50.9%
49 | CC(C)(Oc1ccc(Cl)cc1)C(=O)O [Clofibric Acid] | 92.6%
50 | CC(=O)[C@@]1(O)CC[C@H]2[C@@H]3CCC4=CC(=O)CCC4=C3[C@@H](c3ccc(N(C)C)cc3)C[C@@]21C [Ulipristal] | 89.1%

Row | SMILES | cell viability
51 | COc1ccc(CCNCC(O)COc2cccc(C)c2)cc1OC (stereo not drawn) [Bevantolol hydrochloride] | 88.2%
52 | C[C@]12CC[C@@H]3c4ccc(OS(=O)(=O)O)cc4CC[C@H]3[C@@H]1CCC2=O [Estropipate] | 103%
53 | CN1CCN(c2c(F)cc3c(=O)c(C(=O)O)cn4c3c2OCN4C)CC1 [Marbofloxacin] | 88.4%
54 | CC(C)(C)CC(C)(C)c1ccc(O)c(Cc2ccc(Cl)cc2Cl)c1 [Clofoctol] | 92.3%
55 | CCN(CC)CCOC(=O)C(c1ccccc1)c1ccccc1 [Adiphenine HCl] | 93.3%
56 | OC(CCCN1CCCCC1)(c1ccccc1)c1ccccc1 [Diphenidol HCl] | 93.8%
57 | CCOC(=O)c1ccc(N)cc1 [Benzocaine] | 90.2%
58 | CCOC(=O)c1ccc(N)cc1 [Benzocaine hydrochloride] | 89.5%
59 | Nc1nc(NC2CC2)c2ncn([C@H]3C=C[C@@H](CO)C3)c2n1 [Abacavir] | 91.5%
60 | Nc1nc(NC2CC2)c2ncn([C@H]3C=C[C@@H](CO)C3)c2n1 [Abacavir sulfate] | 82.7%
61 | O=C(O)CCCC[C@@H]1CCSS1 (racemic) [Thioctic acid] | 96.1%
62 | CN(Cc1cnc2nc(N)nc(N)c2n1)c1ccc(C(=O)N[C@@H](CCC(=O)O)C(=O)O)cc1 [Methotrexate disodium] | 87%
63 | CN(Cc1cnc2nc(N)nc(N)c2n1)c1ccc(C(=O)N[C@@H](CCC(=O)O)C(=O)O)cc1 [Methotrexate] | 97.6%
64 | CCOc1ccc2nc3cc(N)ccc3c(N)c2c1 [Ethacridine lactate monohydrate] | 66.4%
65 | CSCCNc1nc(SCCC(F)(F)F)nc2c1ncn2[C@@H]1O[C@H](COP(=O)(O)OP(=O)(O)C(Cl)(Cl)P(=O)(O)O)[C@@H](O)[C@H]1O [Cangrelor Tetrasodium] | 80%
66 | CN(C)c1ccc(O)c2c1C[C@H]1C[C@H]3[C@H](N(C)C)C(O)=C(C(N)=O)C(=O)[C@@]3(O)C(O)=C1C2=O [Minocycline HCl] | 82.1%
67 | CCCCCCCCCCCCCCCCOP(=O)([O-])OCC[N+](C)(C)C [Miltefosine] | 84.7%
68 | C[N+](C)(C)CCOC(=O)CCC(=O)OCC[N+](C)(C)C [Succinylcholine Chloride Dihydrate] | 97.2%
69 | CCCCCCCCCCCCCCCCOc1nc2ccc(C)cc2c(=O)o1 [Cetilistat] | 95.9%
70 | CN(C)[C@@H]1C(O)=C(C(N)=O)C(=O)[C@@]2(O)C(O)=C3C(=O)c4c(O)cccc4[C@@](C)(O)[C@H]3[C@H](O)[C@@H]12 [Oxytetracycline (Terramycin)] | 84.7%
71 | CN(C)[C@@H]1C(O)=C(C(N)=O)C(=O)[C@@]2(O)C(O)=C3C(=O)c4c(O)cccc4[C@@](C)(O)[C@H]3[C@H](O)[C@@H]12 [Oxytetracycline Dihydrate] | 94.6%
72 | COc1cc(OC)c(/C=C/S(=O)(=O)Cc2ccc(OC)c(NCC(=O)O)c2)c(OC)c1 | 80.3%
73 | CSc1ccc2c(c1)N(CCC1CCCCN1C)c1ccccc1S2 (stereo not drawn) [Thioridazine hydrochloride] | 67.1%
